Test results taken from the supplement of paper PMC10849652.
This is one part of the list.

The chains behind the UniProt entries cited, without tags or fusion partners. Where a name states a change or a piece, a line headed by the entry shows the natural chain unless it says otherwise.
UniProt Q6ZRI6: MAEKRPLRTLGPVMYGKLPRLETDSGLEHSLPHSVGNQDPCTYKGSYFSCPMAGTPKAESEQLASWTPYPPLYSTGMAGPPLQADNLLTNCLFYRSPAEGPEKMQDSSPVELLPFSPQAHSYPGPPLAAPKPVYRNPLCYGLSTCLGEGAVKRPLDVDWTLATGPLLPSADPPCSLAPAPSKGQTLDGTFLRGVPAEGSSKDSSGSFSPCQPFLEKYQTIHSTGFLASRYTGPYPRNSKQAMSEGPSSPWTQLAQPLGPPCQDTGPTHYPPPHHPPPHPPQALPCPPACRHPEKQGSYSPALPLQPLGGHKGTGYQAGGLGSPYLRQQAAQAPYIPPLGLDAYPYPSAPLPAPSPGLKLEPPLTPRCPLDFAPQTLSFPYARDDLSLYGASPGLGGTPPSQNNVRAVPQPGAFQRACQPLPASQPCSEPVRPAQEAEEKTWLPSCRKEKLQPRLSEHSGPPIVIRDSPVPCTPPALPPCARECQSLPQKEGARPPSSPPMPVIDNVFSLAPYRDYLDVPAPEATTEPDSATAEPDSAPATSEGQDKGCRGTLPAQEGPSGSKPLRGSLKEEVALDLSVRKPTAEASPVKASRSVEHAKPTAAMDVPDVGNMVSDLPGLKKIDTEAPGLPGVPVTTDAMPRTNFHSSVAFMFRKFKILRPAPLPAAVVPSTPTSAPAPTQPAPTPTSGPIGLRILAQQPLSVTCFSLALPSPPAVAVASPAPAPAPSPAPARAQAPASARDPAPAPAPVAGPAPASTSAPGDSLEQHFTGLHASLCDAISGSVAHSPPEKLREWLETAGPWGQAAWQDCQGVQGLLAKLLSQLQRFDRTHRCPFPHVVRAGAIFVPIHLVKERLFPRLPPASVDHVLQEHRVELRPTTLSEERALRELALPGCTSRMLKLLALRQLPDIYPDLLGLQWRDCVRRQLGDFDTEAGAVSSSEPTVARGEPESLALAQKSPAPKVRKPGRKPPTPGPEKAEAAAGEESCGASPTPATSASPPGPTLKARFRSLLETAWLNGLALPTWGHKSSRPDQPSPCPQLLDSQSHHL
UniProt Q08AD1: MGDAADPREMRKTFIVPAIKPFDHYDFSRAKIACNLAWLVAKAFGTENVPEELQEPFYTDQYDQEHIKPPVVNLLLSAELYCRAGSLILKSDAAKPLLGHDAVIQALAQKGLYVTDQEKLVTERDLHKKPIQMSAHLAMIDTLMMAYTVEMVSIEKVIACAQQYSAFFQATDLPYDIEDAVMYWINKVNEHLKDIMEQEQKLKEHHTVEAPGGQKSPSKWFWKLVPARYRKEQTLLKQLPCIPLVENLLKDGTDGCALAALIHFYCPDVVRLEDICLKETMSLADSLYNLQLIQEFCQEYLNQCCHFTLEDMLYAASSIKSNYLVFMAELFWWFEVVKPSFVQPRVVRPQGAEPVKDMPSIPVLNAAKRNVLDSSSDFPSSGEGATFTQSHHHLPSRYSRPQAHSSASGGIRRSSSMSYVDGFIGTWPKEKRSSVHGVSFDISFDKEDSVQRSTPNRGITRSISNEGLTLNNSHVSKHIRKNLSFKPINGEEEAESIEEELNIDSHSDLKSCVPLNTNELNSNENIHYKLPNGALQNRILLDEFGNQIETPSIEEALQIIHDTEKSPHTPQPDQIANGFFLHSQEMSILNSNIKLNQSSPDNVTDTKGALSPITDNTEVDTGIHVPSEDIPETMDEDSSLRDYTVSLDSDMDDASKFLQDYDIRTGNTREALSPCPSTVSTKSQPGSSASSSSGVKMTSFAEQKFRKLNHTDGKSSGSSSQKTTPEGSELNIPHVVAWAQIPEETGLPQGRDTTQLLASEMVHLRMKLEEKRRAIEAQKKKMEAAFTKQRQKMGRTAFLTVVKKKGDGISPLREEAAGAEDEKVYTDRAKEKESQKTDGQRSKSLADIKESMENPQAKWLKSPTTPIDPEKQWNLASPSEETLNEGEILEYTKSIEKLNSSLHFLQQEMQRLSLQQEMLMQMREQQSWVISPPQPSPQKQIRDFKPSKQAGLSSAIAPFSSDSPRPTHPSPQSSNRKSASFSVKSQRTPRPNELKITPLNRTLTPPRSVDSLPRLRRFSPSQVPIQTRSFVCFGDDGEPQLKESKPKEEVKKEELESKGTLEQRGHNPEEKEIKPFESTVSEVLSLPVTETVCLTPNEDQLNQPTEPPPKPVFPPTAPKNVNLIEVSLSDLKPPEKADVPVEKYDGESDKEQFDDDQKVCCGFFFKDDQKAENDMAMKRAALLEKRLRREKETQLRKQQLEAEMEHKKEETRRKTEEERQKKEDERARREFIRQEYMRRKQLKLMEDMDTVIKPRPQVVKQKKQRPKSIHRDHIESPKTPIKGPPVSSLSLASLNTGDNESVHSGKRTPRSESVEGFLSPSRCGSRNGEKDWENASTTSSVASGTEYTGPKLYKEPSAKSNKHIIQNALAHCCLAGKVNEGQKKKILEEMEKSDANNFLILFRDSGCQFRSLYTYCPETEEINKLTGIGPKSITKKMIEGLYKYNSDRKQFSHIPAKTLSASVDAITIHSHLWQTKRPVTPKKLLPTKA
UniProt Q504U0: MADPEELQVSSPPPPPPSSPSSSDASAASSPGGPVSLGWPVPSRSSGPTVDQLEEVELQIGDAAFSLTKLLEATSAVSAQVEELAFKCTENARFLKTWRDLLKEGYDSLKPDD
UniProt P04003: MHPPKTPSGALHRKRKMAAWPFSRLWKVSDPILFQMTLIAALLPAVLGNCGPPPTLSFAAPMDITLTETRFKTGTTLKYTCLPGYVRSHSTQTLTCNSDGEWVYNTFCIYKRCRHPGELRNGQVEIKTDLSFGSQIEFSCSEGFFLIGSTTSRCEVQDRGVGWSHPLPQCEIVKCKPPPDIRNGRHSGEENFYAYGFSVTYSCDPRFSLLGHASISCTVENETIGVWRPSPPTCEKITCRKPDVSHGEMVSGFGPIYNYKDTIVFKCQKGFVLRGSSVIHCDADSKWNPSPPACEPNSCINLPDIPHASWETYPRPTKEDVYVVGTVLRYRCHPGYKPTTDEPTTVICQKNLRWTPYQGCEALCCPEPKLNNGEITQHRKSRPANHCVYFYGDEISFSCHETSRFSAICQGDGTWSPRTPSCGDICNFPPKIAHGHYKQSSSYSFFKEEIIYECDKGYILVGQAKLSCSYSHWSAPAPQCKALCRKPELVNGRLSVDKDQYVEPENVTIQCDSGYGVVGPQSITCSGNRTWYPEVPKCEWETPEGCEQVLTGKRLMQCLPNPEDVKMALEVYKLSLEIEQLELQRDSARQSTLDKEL
UniProt Q96MH7: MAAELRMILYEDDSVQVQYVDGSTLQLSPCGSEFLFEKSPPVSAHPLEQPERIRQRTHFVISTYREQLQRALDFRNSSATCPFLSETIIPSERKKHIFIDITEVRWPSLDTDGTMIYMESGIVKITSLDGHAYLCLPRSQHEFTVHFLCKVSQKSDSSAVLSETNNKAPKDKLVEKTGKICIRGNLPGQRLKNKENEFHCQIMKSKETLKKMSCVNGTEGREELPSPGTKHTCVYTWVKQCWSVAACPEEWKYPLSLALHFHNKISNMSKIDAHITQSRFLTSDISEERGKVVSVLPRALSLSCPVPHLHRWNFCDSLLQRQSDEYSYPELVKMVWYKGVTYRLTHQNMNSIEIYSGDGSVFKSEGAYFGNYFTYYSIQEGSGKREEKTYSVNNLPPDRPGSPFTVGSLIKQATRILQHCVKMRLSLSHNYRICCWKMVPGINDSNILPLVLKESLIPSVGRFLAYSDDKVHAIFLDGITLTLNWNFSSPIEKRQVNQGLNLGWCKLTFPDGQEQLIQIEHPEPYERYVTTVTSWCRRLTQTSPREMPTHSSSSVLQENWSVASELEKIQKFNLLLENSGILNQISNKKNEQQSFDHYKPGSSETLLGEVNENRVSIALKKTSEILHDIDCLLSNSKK
UniProt Q8NDD1: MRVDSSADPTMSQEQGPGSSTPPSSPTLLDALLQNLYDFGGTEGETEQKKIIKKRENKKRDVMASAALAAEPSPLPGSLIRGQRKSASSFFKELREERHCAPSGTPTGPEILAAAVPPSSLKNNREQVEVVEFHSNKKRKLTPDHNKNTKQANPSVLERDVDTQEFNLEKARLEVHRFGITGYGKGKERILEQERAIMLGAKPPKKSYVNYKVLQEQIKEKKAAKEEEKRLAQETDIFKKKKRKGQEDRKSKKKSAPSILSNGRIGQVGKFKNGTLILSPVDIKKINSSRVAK
UniProt Q13554, whole entry, looked up: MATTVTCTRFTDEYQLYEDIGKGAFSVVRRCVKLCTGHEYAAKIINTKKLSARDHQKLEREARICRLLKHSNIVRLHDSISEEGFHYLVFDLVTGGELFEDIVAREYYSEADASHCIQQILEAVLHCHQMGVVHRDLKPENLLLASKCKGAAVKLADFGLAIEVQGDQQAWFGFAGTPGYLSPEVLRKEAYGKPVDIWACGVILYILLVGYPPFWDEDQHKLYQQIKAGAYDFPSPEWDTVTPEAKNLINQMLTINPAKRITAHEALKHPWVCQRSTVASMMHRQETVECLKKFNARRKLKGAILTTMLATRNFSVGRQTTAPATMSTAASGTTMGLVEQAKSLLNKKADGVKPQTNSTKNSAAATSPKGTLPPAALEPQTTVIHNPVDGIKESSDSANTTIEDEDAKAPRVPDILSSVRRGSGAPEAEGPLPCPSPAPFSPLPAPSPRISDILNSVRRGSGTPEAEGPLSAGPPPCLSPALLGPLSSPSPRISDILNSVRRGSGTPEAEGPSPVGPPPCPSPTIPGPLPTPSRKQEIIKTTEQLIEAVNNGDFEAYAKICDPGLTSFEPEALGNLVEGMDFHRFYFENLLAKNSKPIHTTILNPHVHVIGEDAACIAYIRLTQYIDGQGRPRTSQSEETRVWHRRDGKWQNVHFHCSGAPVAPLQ
UniProt Q9NX04: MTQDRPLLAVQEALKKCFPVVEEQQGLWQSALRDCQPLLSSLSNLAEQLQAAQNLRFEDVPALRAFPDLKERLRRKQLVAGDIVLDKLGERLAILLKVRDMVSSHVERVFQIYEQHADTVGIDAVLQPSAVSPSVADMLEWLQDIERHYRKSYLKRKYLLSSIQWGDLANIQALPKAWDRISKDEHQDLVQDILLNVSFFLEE
UniProt Q5U649: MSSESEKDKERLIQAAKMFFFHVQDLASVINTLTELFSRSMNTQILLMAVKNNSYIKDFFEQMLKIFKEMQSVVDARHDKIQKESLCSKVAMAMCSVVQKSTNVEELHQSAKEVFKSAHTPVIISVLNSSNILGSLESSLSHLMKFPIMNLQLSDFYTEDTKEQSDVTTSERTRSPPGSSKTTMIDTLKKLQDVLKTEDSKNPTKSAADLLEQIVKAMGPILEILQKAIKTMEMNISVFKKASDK
UniProt Q9NQ89: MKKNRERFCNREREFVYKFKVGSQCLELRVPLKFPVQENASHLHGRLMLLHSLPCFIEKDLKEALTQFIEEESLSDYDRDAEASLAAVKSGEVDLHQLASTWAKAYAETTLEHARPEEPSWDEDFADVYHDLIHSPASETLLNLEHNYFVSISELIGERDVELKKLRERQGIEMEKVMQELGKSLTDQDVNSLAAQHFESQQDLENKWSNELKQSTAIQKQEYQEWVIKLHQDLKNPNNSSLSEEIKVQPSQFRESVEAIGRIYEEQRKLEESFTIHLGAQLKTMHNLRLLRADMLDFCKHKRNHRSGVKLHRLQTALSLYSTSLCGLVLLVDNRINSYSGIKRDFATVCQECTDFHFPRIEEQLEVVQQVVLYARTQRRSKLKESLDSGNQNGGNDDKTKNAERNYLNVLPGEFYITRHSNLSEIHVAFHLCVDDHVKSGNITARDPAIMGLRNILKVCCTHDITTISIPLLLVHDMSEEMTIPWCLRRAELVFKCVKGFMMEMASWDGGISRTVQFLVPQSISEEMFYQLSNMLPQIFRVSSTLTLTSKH
UniProt Q96LT7: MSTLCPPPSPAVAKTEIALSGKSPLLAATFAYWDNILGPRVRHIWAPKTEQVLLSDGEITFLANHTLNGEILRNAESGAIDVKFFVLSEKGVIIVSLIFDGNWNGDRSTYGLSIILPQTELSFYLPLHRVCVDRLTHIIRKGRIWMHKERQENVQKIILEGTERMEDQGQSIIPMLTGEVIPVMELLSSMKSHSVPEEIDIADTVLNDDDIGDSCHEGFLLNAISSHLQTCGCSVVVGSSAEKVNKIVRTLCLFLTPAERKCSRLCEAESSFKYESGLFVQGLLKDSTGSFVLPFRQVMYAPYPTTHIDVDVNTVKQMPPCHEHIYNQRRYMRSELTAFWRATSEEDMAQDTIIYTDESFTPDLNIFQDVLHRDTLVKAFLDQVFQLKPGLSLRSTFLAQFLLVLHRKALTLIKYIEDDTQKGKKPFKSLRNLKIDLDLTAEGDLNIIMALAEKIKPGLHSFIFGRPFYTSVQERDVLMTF

Experiments:
Test in all cases: log2 fold change, soluble protein after heating vs DMSO (PISA); higher = thermal stabilisation; K562 lysate, 10 uM; active = over 0.2 and 3.5 SD of the protein, either way, in both replicates (recomputed)
[1] = compound: C#Cc1cccc(Nc2ncnc3cc(OCCOC)c(OCCOC)cc23)c1 [erlotinib]
Summary of the method: (§1)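 K562 pellets were dounce-homogenised in PBS pH 7.4 containing 1 mM MgCl2, and the crude extract, at 1 mg/mL protein, was exposed to 10 μM compound for 30 min. Aliquots were heated for 3 min across 48°C-58°C, pooled, brought to 0.5% NP-40 at 4°C and spun at 21,000xg for 90 min, with the supernatant taken as soluble protein. TMTpro 16plex LC-MS/MS with equalised channel sums quantified that protein. Values are log-two fold changes in thermal stability relative to solvent controls, taken from duplicates.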

[2] = compound: C1=CC(=CC=C1C2=NC3=C(N2)C=C(C=C3)C(=O)N)OC4=CC=C(C=C4)Cl
Summary of the method: as §1

[3] = compound: C1=CC2=NC=CN=C2C=C1/C=C/3\C(=O)NC(=O)S3
Summary of the method: as §1

[4] = compound: C1=CC=C(C=C1)C2=NC(=C(N2)C3=CC=NC=C3)C4=CC(=C(C=C4)Cl)O
Summary of the method: as §1

[5] = compound: C1CCN(C1)C(=O)NC2=CC=CC(=C2)NC3=NC=C(C(=N3)NCCC4=CN=CN4)Br
Summary of the method: as §1

[6] = compound: C1CN(CCC1(CC2=CC=C(C=C2)Cl)N)C3=NC=NC4=C3C=CN4
Summary of the method: as §1

[7] = compound: C1COCCN1CCN2C3=CC=CC=C3N=C2NC(=O)C4=CC(=CC=C4)[N+](=O)[O-] [IRAK-1-4 Inhibitor I]
Summary of the method: as §1

[8] = compound: C=CC(=O)N1CCC[C@@H](n2nc(-c3ccc(Oc4ccccc4)cc3)c3c(N)ncnc32)C1 [ibrutinib]
Summary of the method: as §1

[9] = compound: CC(C)(C)Cn1c(N)nc2ccc(-c3[nH]c(C(C)(C)C)nc3-c3ccc(F)cc3)nc21 [ralimetinib]
Summary of the method: as §1

[10] = compound: CC(C)(O)CC(=O)NCCn1ccc2ncnc(Nc3ccc(Oc4cccc(C(F)(F)F)c4)c(Cl)c3)c21
Summary of the method: as §1

[11] = compound: CC(C)C1=C2N=C(C=C(N2N=C1)NCC3=CC=CC=C3)NCCCCCCN
Summary of the method: as §1

[12] = compound: CC1=C(C(CC(=O)N1)C2=CC=C(C=C2)C(F)(F)F)C(=O)NC3=C(C=C4C(=C3)C=NN4)F
Summary of the method: as §1

[13] = compound: CC1=C(C2=C(C=C1)C(=O)C3=CC=CC=C3N2CCCN)C
Summary of the method: as §1

[14] = compound: CC1=C(C=C(C=C1)NC(=O)C2=CC(=CC=C2)C(C)(C)C#N)NC3=CC4=C(C=C3)N=CN(C4=O)C
Summary of the method: as §1

[15] = compound: CC1=C(C=C(C=C1)NC(=O)C2=CC(=CC=C2)N(C)C)NC(=O)C3=CC=C(C=C3)O
Summary of the method: as §1

[16] = compound: C/C(=N\NC(=O)C1=CC(=CC=C1)S(=O)(=O)N2CCOCC2)/C3=C(C=CC(=C3)Cl)O
Summary of the method: as §1

[17] = compound: C1=CC2=C(C=CC(=C2)/C=C\3/C(=O)NC(=NCC4=CC=CS4)S3)N=C1
Summary of the method: as §1

[18] = compound: C1=CC=C2C(=C1)C3=NNC4=CC=CC(=C43)C2=O
Summary of the method: as §1

[19] = compound: CC(=O)c1cnc2ccc(-c3cc(Cl)c(O)c(Cl)c3)nc2c1N[C@H]1CC[C@H](CN(C)C)CC1
Summary of the method: as §1

[20] = compound: CC1=CC=C(C=C1)SC2=C3C=C(SC3=CN=C2)C(=O)N
Summary of the method: as §1

Measured: log2 fold change

C15orf39 (UniProt Q6ZRI6)
inactive: [1] -0.029 | [2] 0.026 | [3] -0.031 | [4] 0.052 | [5] 0.019 | [6] -0.009 | [7] 0.034 | [8] -0.141 | [9] -0.005 | [10] -0.029 | [11] -0.06 | [12] 0.104 | [13] 0.039 | [14] -0.03 | [15] 0.019

CAMSAP2 (UniProt Q08AD1)
inactive: [1] 0.112 | [16] 0.032 | [2] 0.306 | [17] 0.063 | [4] -0.094 | [18] -0.161 | [5] -0.008 | [6] -0.018 | [7] -0.055 | [9] -0.093 | [10] 0.162 | [11] 0.024 | [12] 0.273 | [13] 0.044 | [14] -0.04 | [15] 0.186

CAD (UniProt H7BZB3)
inactive: [1] 0.126 | [16] -0.127 | [2] -0.28 | [17] -0.069 | [18] -0.034 | [5] -0.035 | [6] -0.007 | [11] -0.073

C4orf46 (UniProt Q504U0)
inactive: [1] -0.263 | [2] -0.011 | [4] 0.053 | [7] -0.021 | [9] 0.215 | [10] -0.275 | [11] 0.158 | [13] 0.008 | [15] 0.245

C4BPA (UniProt P04003)
inactive: [1] -0.036 | [16] 0.194 | [2] -0.002 | [17] 0.245 | [4] -0.08 | [18] 0.117 | [7] -0.02 | [19] -0.037 | [9] -0.049 | [10] 0.001 | [11] 0.001 | [12] 0.019 | [13] 0.055 | [14] -0.017 | [15] 0.054 | [20] -0.078

C5orf34 (UniProt Q96MH7)
inactive: [1] 0.033 | [16] 0.304 | [2] -0.055 | [17] -0.144 | [18] -0.283 | [5] -0.232 | [6] -0.232 | [11] 0.063 | [13] -0.043

C1orf131 isoform 5 (UniProt Q8NDD1)
inactive: [1] -0.006 | [16] -0.094 | [2] 0.051 | [17] -0.058 | [4] -0.013 | [18] -0.001 | [5] -0.062 | [6] -0.011 | [7] 0.067 | [19] 0.041 | [9] 0.06 | [10] -0.056 | [11] 0.028 | [12] -0.016 | [13] -0.071 | [14] 0.08 | [15] 0.025 | [20] -0.043

C1GALT1 (UniProt Q9NS00)
inactive: [1] -0.1 | [16] 0.006 | [2] -0.068 | [17] 0.039 | [4] -0.004 | [18] -0.069 | [7] -0.043 | [19] 0.101 | [9] -0.072 | [10] 0.032 | [11] 0.148 | [13] 0.024 | [14] 0 | [15] 0.041 | [20] -0.085

CAMK2B (UniProt Q13554)
inactive: [1] 0.037 | [16] 0.086 | [2] -0.067 | [17] -0.039 | [3] -0.068 | [4] -0.069 | [5] 0.011 | [6] -0.034 | [7] 0.087 | [8] 0.092 | [19] 0.023 | [9] 0.028 | [10] 0.045 | [11] 0.075 | [12] -0.035 | [13] -0.018 | [14] -0.005 | [15] 0.046 | [20] -0.032

CAND1 (UniProt F5H6I6)
inactive: [1] 0.037 | [2] 0.061 | [3] -0.003 | [4] 0.071 | [5] -0.078 | [6] 0.122 | [7] 0.015 | [8] 0.009 | [19] -0.088 | [9] -0.09 | [10] -0.147 | [11] 0.056 | [12] -0.041 | [13] 0.05 | [14] 0.06 | [15] 0.056 | [20] -0.021

C1orf109 (UniProt Q9NX04)
inactive: [1] 0.178 | [2] -0.023 | [4] -0.115 | [5] -0.039 | [6] 0.054 | [7] -0.073 | [19] 0.019 | [9] 0.084 | [10] 0.081 | [11] 0.149 | [12] 0.028 | [13] -0.124 | [14] -0.072 | [15] 0.106 | [20] 0.018

C12orf60 (UniProt Q5U649)
inactive: [1] -0.048 | [16] -0.14 | [2] 0.076 | [17] 0.046 | [4] -0.185 | [18] 0.036 | [7] -0.023 | [9] 0.066 | [10] 0.056 | [11] -0.329 | [12] -0.131 | [13] 0.021 | [14] 0.032 | [15] -0.062

C12orf4 (UniProt Q9NQ89)
inactive: [1] 0.117 | [2] 0.125 | [3] -0.172 | [5] -0.11 | [6] -0.013 | [8] -0.051 | [19] -0.089 | [11] 0.146 | [14] -0.31 | [20] -0.091

C9orf72 (UniProt Q96LT7)
inactive: [1] -0.043 | [2] 0.056 | [3] -0.01 | [4] -0.041 | [5] 0.056 | [6] -0.068 | [7] -0.042 | [8] -0.079 | [19] -0.004 | [9] -0.011 | [10] -0.021 | [11] 0.025 | [12] -0.066 | [13] 0.014 | [14] -0.003 | [15] -0.023 | [20] 0.038

Reprinted from above (two entries):
C4BPA (UniProt P04003)
inactive: [1] -0.036 | [16] 0.194 | [2] -0.002 | [17] 0.245 | [4] -0.08 | [18] 0.117 | [7] -0.02 | [19] -0.037 | [9] -0.049 | [10] 0.001 | [11] 0.001 | [12] 0.019 | [13] 0.055 | [14] -0.017 | [15] 0.054 | [20] -0.078

C5orf34 (UniProt Q96MH7)
inactive: [1] 0.033 | [16] 0.304 | [2] -0.055 | [17] -0.144 | [18] -0.283 | [5] -0.232 | [6] -0.232 | [11] 0.063 | [13] -0.043
